# Test results from patent publication US9458203B2, “Integrin-blocking polypeptides and uses thereof” (priority 2011, dated 2016).
# Like-named read-outs stand apart in the source and are kept apart here. At least one peptide structure holds a part that was inferred or is arguable (an end, a ring closure or a residue). Some compounds share one wording; it may come from a single statement. Ends that are not written are not given here.
# Assays:
# [1] = tested on: human breast cancer MDA-MB-231; test: heterotransplanted human breast cancer MDA-MB-231 in nude mice; settings: tail vein once a day, 14 days
# human renal cancer A498 = assay type: in vivo, nude mice; settings: for tumor inhibition rate / tumor weight: daily, tail vein injection; for inhibition rate on tumor: tail vein daily
# [2] = tested on: human thyroid cancer SW-579; assay type: in vivo, nude mice; settings: for tumor inhibition rate / tumor weight: daily, tail vein injection; for inhibition rate on tumor: tail vein daily
# human lung cancer H460 = settings: tail vein daily
# [3] = tested on: collagen-induced arthritis; test: collagen-induced arthritis (CIA) mouse models; assay type: in vivo, DBA/1 mice; settings: for in vivo immunoprotective / therapeutic effect on CIA mouse models: all doses, hypodermic twice a day, 10 days; for swelling of joints / swelling of paws / clinical scoring: CIA mice; for clinical scoring: joint score, 16 as the highest point
# [4] = tested on: human umbilical vein endothelial cells (HUVECs); test: inhibition of migration of HUVECs (transwell); assay type: cell-based; settings: 24 h
# [5] = tested on: human ovarian cancer SK-OV-3; assay type: in vivo, nude mice; settings: for tumor inhibition rate / tumor weight: daily, tail vein injection; for inhibition rate on tumor: tail vein daily
# [6] = tested on: human endometrial cancer HHUA; settings: tail vein daily
# human colon cancer HT-29 = assay type: in vivo, nude mice; settings: for tumor inhibition rate / tumor weight: daily, tail vein injection; for inhibition rate on tumor: tail vein daily
# [7] = high-, medium- and low-dose groups, p<0.01
sequence,measurement,setting,value
FQPVLHLVALNSPLSGGMRGIRGADFQCFQQARAVGLAGTFRA [polypeptide I],tumor inhibition rate,[1]; 0.75 mg/kg/time,51.26%
same,tumor weight,[1]; 0.75 mg/kg/time,0.58 ± 0.22 g
same,tumor inhibition rate,[1]; 1.5 mg/kg/time,58.82%
same,tumor weight,[1]; 1.5 mg/kg/time,0.49 ± 0.13 g
same,tumor inhibition rate,[1]; 3 mg/kg/time,52.95%
same,tumor weight,[1]; 3 mg/kg/time,0.56 ± 0.10 g
same,tumor inhibition rate,human renal cancer A498; 0.75 mg/kg/time,58.53%
same,tumor weight,human renal cancer A498; 0.75 mg/kg/time,0.51 ± 0.13 g
same,tumor inhibition rate,human renal cancer A498; 1.5 mg/kg/time,60.16%
same,tumor weight,human renal cancer A498; 1.5 mg/kg/time,0.49 ± 0.10 g
same,tumor inhibition rate,human renal cancer A498; 3 mg/kg/time,53.65%
same,tumor weight,human renal cancer A498; 3 mg/kg/time,0.57 ± 0.15 g
same,inhibition rate on tumor,human renal cancer A498; high dose,53.65%
same,inhibition rate on tumor,human renal cancer A498; low dose,58.53%
same,inhibition rate on tumor,human renal cancer A498; medium dose,60.16%
same,tumor inhibition rate,[2]; 0.75 mg/kg/time,64.12%
same,tumor weight,[2]; 0.75 mg/kg/time,0.47 ± 0.14 g
same,tumor inhibition rate,[2]; 1.5 mg/kg/time,64.89%
same,tumor weight,[2]; 1.5 mg/kg/time,0.46 ± 0.16 g
same,tumor inhibition rate,[2]; 3 mg/kg/time,58.01%
same,tumor weight,[2]; 3 mg/kg/time,0.55 ± 0.12 g
same,inhibition rate on tumor,[2]; high dose,58.01%
same,inhibition rate on tumor,[2]; low dose,64.12%
same,inhibition rate on tumor,[2]; medium dose,64.89%
same,tumor inhibition rate,human lung cancer H460; 0.75 mg/kg/time,42.05%
same,tumor weight,human lung cancer H460; 0.75 mg/kg/time,0.51 ± 0.17 g
same,tumor inhibition rate,human lung cancer H460; 1.5 mg/kg/time,54.54%
same,tumor weight,human lung cancer H460; 1.5 mg/kg/time,0.40 ± 0.05 g
same,tumor inhibition rate,human lung cancer H460; 3 mg/kg/time,46.60%
same,tumor weight,human lung cancer H460; 3 mg/kg/time,0.47 ± 0.17 g
same,in vivo immunoprotective / therapeutic effect on CIA mouse models,[3],have therapeutic effect
same,in vivo immunoprotective / therapeutic effect on CIA mouse models,[3]; listed as Polypeptide I,presented in vivo immunoprotective effect
same,swelling of joints,[3]; dose 0.2 mg/kg,0.97 ± 0.23 mm
same,swelling of paws,[3]; dose 0.2 mg/kg,1.21 ± 0.22 mm
same,clinical scoring,[3]; dose 0.2 mg/kg,9.7 ± 1.5
same,swelling of joints,[3]; dose 0.4 mg/kg,0.79 ± 0.17 mm
same,swelling of paws,[3]; dose 0.4 mg/kg,0.94 ± 0.18 mm
same,clinical scoring,[3]; dose 0.4 mg/kg,9.1 ± 1.4
same,swelling of joints,[3]; dose 0.8 mg/kg,1.05 ± 0.31 mm
same,swelling of paws,[3]; dose 0.8 mg/kg,1.31 ± 0.26 mm
same,clinical scoring,[3]; dose 0.8 mg/kg,11.4 ± 1.6
same,joint scoring in contrast with model control group,[3]; [7],significantly lower
same,swelling degree of joints in contrast with model control group,[3]; [7],extremely significant difference
same,swelling degree of paws in contrast with model control group,[3]; [7],extremely significant difference
same,MI rate,[4]; 0.5 μg/ml,18.69%
same,number of migrated cells (mean ± SD),[4]; 0.5 μg/ml,979.8 ± 75.3
same,MI rate,[4]; 1 μg/ml,20.66%
same,number of migrated cells (mean ± SD),[4]; 1 μg/ml,956.0 ± 78.2
same,MI rate,[4]; 2 μg/ml,20.23%
same,number of migrated cells (mean ± SD),[4]; 2 μg/ml,961.3 ± 89.5
same,MI rate,[4]; 4 μg/ml,25.02%
same,number of migrated cells (mean ± SD),[4]; 4 μg/ml,903.5 ± 68.7
same,MI rate,[4]; 8 μg/ml,32.32%
same,number of migrated cells (mean ± SD),[4]; 8 μg/ml,815.5 ± 62.32
same,MI rate,[4]; 16 μg/ml,41.39%
same,number of migrated cells (mean ± SD),[4]; 16 μg/ml,706.3 ± 48.7
same,MI rate,[4]; 32 μg/ml,27.66%
same,number of migrated cells (mean ± SD),[4]; 32 μg/ml,871.8 ± 67.9
same,MI rate,[4]; 64 μg/ml,22.86%
same,number of migrated cells (mean ± SD),[4]; 64 μg/ml,929.5 ± 99.7
same,tumor inhibition rate,[5]; 0.75 mg/kg/time,69.40%
same,tumor weight,[5]; 0.75 mg/kg/time,0.41 ± 0.10 g
same,tumor inhibition rate,[5]; 1.5 mg/kg/time,70.89%
same,tumor weight,[5]; 1.5 mg/kg/time,0.39 ± 0.07 g
same,tumor inhibition rate,[5]; 3 mg/kg/time,67.13%
same,tumor weight,[5]; 3 mg/kg/time,0.47 ± 0.12 g
same,inhibition rate on tumor,[5]; high dose,67.13%
same,inhibition rate on tumor,[5]; low dose,69.40%
same,inhibition rate on tumor,[5]; medium dose,70.89%
same,tumor inhibition rate,[6]; 0.75 mg/kg/time,54.39%
same,tumor weight,[6]; 0.75 mg/kg/time,0.52 ± 0.12 g
same,tumor inhibition rate,[6]; 1.5 mg/kg/time,55.30%
same,tumor weight,[6]; 1.5 mg/kg/time,0.51 ± 0.10 g
same,tumor inhibition rate,[6]; 3 mg/kg/time,47.36%
same,tumor weight,[6]; 3 mg/kg/time,0.60 ± 0.14 g
same,tumor inhibition rate,human colon cancer HT-29; 0.75 mg/kg/time,68.05%
same,tumor weight,human colon cancer HT-29; 0.75 mg/kg/time,0.46 ± 0.13 g
same,tumor inhibition rate,human colon cancer HT-29; 1.5 mg/kg/time,65.97%
same,tumor weight,human colon cancer HT-29; 1.5 mg/kg/time,0.49 ± 0.12 g
same,tumor inhibition rate,human colon cancer HT-29; 3 mg/kg/time,61.11%
same,tumor weight,human colon cancer HT-29; 3 mg/kg/time,0.56 ± 0.15 g
same,inhibition rate on tumor,human colon cancer HT-29; high dose,61.11%
same,inhibition rate on tumor,human colon cancer HT-29; low dose,68.05%
same,inhibition rate on tumor,human colon cancer HT-29; medium dose,65.97%
